Data reported in patent US20190112603A1.
No constants are given. Whether binding was seen depends on the method and setting. Binding seen in cells or lysates may run through a third protein. Some results given as binding are weak or reduced against the parent protein; the word gives no strength.

The chains behind the UniProt entries cited, without tags or fusion partners. Where a name states a change or a piece, a line headed by the entry shows the natural chain unless it says otherwise. A line that says so, or that is headed by a name, gives the form on record, which may keep a tag or linker.
UniProt P40337: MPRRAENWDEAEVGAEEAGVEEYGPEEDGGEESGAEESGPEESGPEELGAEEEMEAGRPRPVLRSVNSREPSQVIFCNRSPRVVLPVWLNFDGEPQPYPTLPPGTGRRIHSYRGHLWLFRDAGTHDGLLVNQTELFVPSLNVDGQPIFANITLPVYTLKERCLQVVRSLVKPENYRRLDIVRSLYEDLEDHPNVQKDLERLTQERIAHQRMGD
HA-pVHL-RRR mutant (P40337, form named): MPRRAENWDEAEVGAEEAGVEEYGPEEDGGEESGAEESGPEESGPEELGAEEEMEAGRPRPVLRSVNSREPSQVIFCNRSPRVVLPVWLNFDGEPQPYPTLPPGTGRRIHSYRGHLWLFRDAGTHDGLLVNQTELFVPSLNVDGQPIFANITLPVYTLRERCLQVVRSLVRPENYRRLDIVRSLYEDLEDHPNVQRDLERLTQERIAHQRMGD
UniProt O00762: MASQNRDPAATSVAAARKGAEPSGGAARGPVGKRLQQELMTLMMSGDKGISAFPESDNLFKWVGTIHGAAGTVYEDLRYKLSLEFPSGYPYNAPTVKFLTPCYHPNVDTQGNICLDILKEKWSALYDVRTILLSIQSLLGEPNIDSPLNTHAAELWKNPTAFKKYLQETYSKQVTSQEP

What was measured:
HA-pVHL-WT [1] = molecular target: HA-pVHL-WT (UniProt P40337); assay: summary of the co-immunoprecipitation results
HA-pVHL-RRR mutant [2] = molecular target: HA-pVHL-RRR mutant (UniProt P40337); assay: summary of the co-immunoprecipitation results with ubiquitination site mutants
HA-pVHL-RRR mutant [3] = molecular target: HA-pVHL-RRR mutant (UniProt P40337); assay: co-immunoprecipitation (HA-tag antibody) from co-transfected HEK cells, Western blot for UBE2C
HA-pVHL-WT [4] = molecular target: HA-pVHL-WT (UniProt P40337); assay: as above
HA-pVHL-WT [5] = molecular target: HA-pVHL-WT (UniProt P40337); assay: co-immunoprecipitation / co-transfection in HEK cells

Measured: binding

UBE2C (ubiquitin E2 ligase-C), overexpressed from myc-UBE2C plasmid in HEK cells (from UniProt O00762 1-179) (enzyme)
binds: all assays above
